Experimental data: PubChem BioAssay AID504444 (National Center for Advancing Translational Sciences (NCATS), 2011)
Among all 360,000 compounds or so, about 7,500 (2.1%) were called active. This list was built around the results that the source calls inconclusive (neither active nor inactive); the mix of calls is not that of the screen. Calls come from the whole dose curve; as a rule, active = well fitted inhibition curve with a large enough effect; inconclusive = small, poorly fitted or top-dose-only effect, or effect the other way; inactive = flat fitted curve, though single readings scatter. Potencies beside an inconclusive call are fits to weak or partial responses and may not hold up.

assay: Nrf2 qHTS screen for inhibitors; details: A549 ARE-Fluc reporter, luciferase luminescence, 18-24 h; activity change, negative = inhibition: at 46 µM (top of the series); note: nearly all actives have a fitted effect of over 60% in size
Method in brief: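 In this cell-based qHTS, ARE-driven firefly luciferase in A549 cells reports Nrf2 activity; the luminescent signal after BugLite lysis is the measured value, with a prior CellTiter-Fluor read for cell health.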
% is set by controls: 0 for no effect and ±100 for the full control effect; potency is the fitted concentration of half-maximal effect.

| Structure (SMILES) | Potency | activity change, negative = inhibition |
| --- | --- | --- |
| O=C(CSc1nnc(NC(=O)c2c(F)cccc2Cl)s1)Nc1ccccc1F | inconclusive: 6.51 µM [falling, single point] | – |
| N#CCc1ccc(NC(=O)Nc2cccc(Cl)c2)cc1 | inconclusive: 29.1 µM [falling, single point] | – |
| CN(C)c1nc(N2CCN(c3ccccc3)CC2)c(C#N)c(=O)o1 | inconclusive: 4.61 µM [falling, partial curve, poor fit] | – |
| O=C(CSC1=NCCS1)Nc1ccnc2ccccc12 | active: 5.17 µM | – |
| CC1CCN(C(=O)CCc2nc3cc(S(=O)(=O)N(C)C)ccc3n2C)CC1 | inconclusive: 29.1 µM [falling, single point] | – |
| O=C(Nc1c(Cl)cc([N+](=O)[O-])cc1Cl)c1cc(Cl)ccc1O | inconclusive: 18.4 µM [falling, single point] | – |
| Cc1nn2c(CN(C(=O)CN3CCOCC3)c3ccccc3)nnc2c2ccccc12 | inactive | – |
| Cc1ccc[n+](/C(C(=S)NCc2ccco2)=C(/[O-])c2ccccc2Cl)c1 | inactive | – |
| COc1ccc(C(CCN2CCOCC2)c2c(OC)cc(OC)c3ccc(=O)oc23)cc1 (configuration not stated) | inactive | – |
| C1=C(N2CCOCC2)/C(=C/c2nc3ccccc3[nH]2)CC1 | inconclusive: 25.9 µM [activator, single point] | – |
| COC(=O)c1sc(N2C(=O)c3oc4ccccc4c(=O)c3C2c2ccc(O)cc2)nc1C (configuration not stated) | inactive | – |
| COc1ccc(CNC(=O)C2CCCN(S(=O)(=O)c3ccc(F)cc3)C2)cc1 (configuration not stated) | inconclusive: 32.6 µM [falling, partial curve, poor fit] | – |
| COCCCN1C(=O)c2[nH]nc(-c3ccccc3O)c2C1c1ccc(OCc2ccccc2)cc1 (configuration not stated) | active: 25.9 µM | – |
| CC(C)Cc1ccc(C(C)C(=N)N)cc1 (configuration not stated) | inconclusive: 29.1 µM [falling, partial curve, poor fit] | – |
| CCc1nnc(NC(=O)c2sc3nc4c(cc3c2N)CCCCCC4)s1 | inconclusive: 32.6 µM [falling, single point] | – |
| COc1ccc(NC(=S)NC(NC(=O)c2cccc(C)c2)C(Cl)(Cl)Cl)c([N+](=O)[O-])c1 (configuration not stated) | inconclusive: 18.4 µM [falling, single point] | – |
| CCOC(=O)N1CCC(NS(=O)(=O)c2cc(Br)cc3c2N(C(=O)CC)CC3)CC1 | inconclusive: 2.91 µM [falling, full curve] | – |
| O=P(OCC1CCCO1)(OCC1CCCO1)OCC1CCCO1 (configuration not stated) | inactive | – |
| Cc1nc2ccccc2c(=O)n1/N=C/c1ccc(N(C)C)cc1 | inconclusive: 11.6 µM [activator, partial curve] | – |
| CC(C)(C)c1ccc(/C=N/Nc2cccc(C(=O)O)c2)cc1 | inconclusive: 3.26 µM [activator, partial curve, poor fit] | – |
| COc1ccc(-c2cc(C(=O)N3CCCCC3)c3ccccc3n2)cc1OC | inconclusive: 4.61 µM [falling, partial curve, poor fit] | – |
| N#Cc1ccc(CC(C(=O)O)N2Cc3ccccc3C2=O)cc1 (configuration not stated) | inconclusive: 5.17 µM [falling, partial curve, poor fit] | – |
| Cc1ccc2cc(C3C(C#N)=C(N)Oc4c3ccc3cccnc43)c(=O)[nH]c2c1 (configuration not stated) | inconclusive: 29.1 µM [falling, single point] | – |

| Structure (SMILES) | Potency | activity change, negative = inhibition |
| --- | --- | --- |
| CCC1CCCCN1C(=O)CSc1nc(-c2ccc(OC)c(OC)c2)cc(C(F)(F)F)n1 (configuration not stated) | inconclusive: 23.1 µM [falling, single point] | – |
| CCN(C(=O)COC(=O)c1cc([N+](=O)[O-])ccc1N1CCOCC1)C1CCCCC1 | inactive | – |
| COc1cc2cc(C)c(SCC(=O)N3CCOCC3)nc2cc1OC | inactive | – |
| O=c1[nH]c(CCl)nc2cc(-c3ccc(Cl)cc3)sc12 | inconclusive: 18.4 µM [falling, single point] | – |
| COc1ccc(C(=O)CN2C(=O)c3ccccc3S2(=O)=O)cc1 | inconclusive: 16.4 µM [falling, single point] | – |
| O=C(c1cc2c(=O)n3ccccc3nc2s1)N1CCOCC1 | inactive | – |
| COc1ccc(C(=O)CCC(=O)NCCc2c[nH]c3ccccc23)cc1 | inconclusive: 18.4 µM [activator, partial curve, poor fit] | – |
| CC(=O)c1cccc(NC(=O)CN(c2ccccc2)S(C)(=O)=O)c1 | inconclusive: 9.2 µM [activator, partial curve, poor fit] | – |
| Cc1ccc2nc(Cc3ccc(N)cc3)oc2c1 | inconclusive: 14.6 µM [activator, partial curve] | – |
| CN(C)S(=O)(=O)c1ccc(NC(=O)COC(=O)c2n[nH]c3ccccc23)cc1 | inconclusive: 29.1 µM [falling, single point] | – |
| COc1cc(C2c3cc4c(cc3CC3COC(=O)N32)OCO4)cc(OC)c1OC (configuration not stated) | inconclusive: 11.6 µM [activator, partial curve] | – |
| Cc1cc(C(=O)NC2CCCc3c2cnn3-c2ccc(C)c(C)c2)n(C)n1 (configuration not stated) | active: 0.206 µM | – |
| CCOc1cc(CNc2ccc(N3CCCC3)cc2)cc(Cl)c1OC | inconclusive: 18.4 µM [activator, partial curve, poor fit] | – |
| CC(OC(=O)C1=Cc2ccccc2OC1)C(=O)NCc1ccco1 (configuration not stated) | inconclusive: 3.26 µM [falling, partial curve] | – |
| COc1ccccc1CNC(=O)CCC(=O)N1CCOc2ccc(C)cc21 | inconclusive: 1.46 µM [falling, full curve, poor fit] | – |
| CCc1cc(=S)n2c([nH]c3ccccc32)c1C#N | inconclusive: 23.1 µM [falling, single point] | – |
| COc1ccc(Cl)cc1CN1C(=O)NC2(CCCCCC2)C1=O | inconclusive: 29.1 µM [activator, single point] | – |
| O=C1/C(=C\c2ccco2)SC(=S)N1c1ccccc1 | inactive | – |
| Cc1cccc(NC(=O)c2sc3nc4c(cc3c2N)CN(C(C)C)CC4)c1 | active: 16.4 µM | – |
| COc1cc2ccccc2cc1C(=O)NC1CCCC1 | inconclusive: 16.4 µM [activator, partial curve, poor fit] | – |
| COC(=O)c1ccc(N2CCN(C(=O)C3CC3)CC2)c([N+](=O)[O-])c1 | inactive | – |
| CC(C)c1ccc(NS(=O)(=O)c2ccc3[nH]cc(C(=O)NCC4CCCO4)c(=O)c3c2)cc1 (configuration not stated) | inactive | – |
| CCOc1ccc2nc(N3CCCC(C(=O)Nc4ccc(OC)c(Cl)c4)C3)sc2c1 (configuration not stated) | inconclusive: 1.64 µM [activator, full curve, poor fit] | – |

| Structure (SMILES) | Potency | activity change, negative = inhibition |
| --- | --- | --- |
| CCC(=O)Nc1nc2ccccc2n1Cc1ccccc1Cl | inconclusive: 23.1 µM [falling, partial curve, poor fit] | – |
| COc1ccc(OCc2nc3ccccc3[nH]2)cc1 | inconclusive: 0.731 µM [activator, partial curve] | – |
| CCN(C(=O)c1ccc(C(C)(C)C)cc1)c1nnc(Cn2nnc3ccccc32)s1 | active: 5.8 µM | – |
| CC(=O)N1c2ccc(S(=O)(=O)N(C)CC(=O)Nc3cccc(C)c3)cc2CC1C (configuration not stated) | inconclusive: 32.6 µM [falling, partial curve, poor fit] | – |
| C=CCOc1ccc(C2C(C#N)=C(N)N(Nc3ccccc3)C3=C2C(=O)CC(C)(C)C3)cc1OC (configuration not stated) | inconclusive: 29.1 µM [falling, single point] | – |
| O=C(NNc1nc(-c2ccc(F)cc2)cs1)c1ccccc1 | active: 14.6 µM | – |
| CN(C)C(=O)c1ccc(N/C=C(\C=O)c2nc3ccccc3o2)cc1 | inconclusive: 29.1 µM [activator, single point] | – |
| CC(/C=C/c1ccccc1)=N\NC(=O)c1cc(C)nc2ccccc12 | inconclusive: 23.1 µM [falling, single point] | – |
| Clc1ccc(COn2c(-c3ccc(Cl)cc3Cl)nc3ncccc32)cc1 | inconclusive: 25.9 µM [falling, partial curve, poor fit] | – |
| CN(C)S(=O)(=O)c1ccc2c(c1)N(CC(=O)Nc1ccc(F)cc1)C(=O)CS2 | inconclusive: 2.31 µM [activator, partial curve] | – |
| CCOc1ccc(-c2nnc(-c3ccco3)o2)cc1 | inconclusive: 0.411 µM [activator, full curve, poor fit] | – |
| Cc1nc(NC(=O)c2ccc(Br)s2)sc1C(=O)N(C)C | inconclusive: 0.517 µM [activator, partial curve, poor fit] | – |
| Nc1ccc(-c2cn3cccnc3n2)cc1 | inconclusive: 20.6 µM [activator, partial curve, poor fit] | – |
| CCOC(=O)c1cc2c(=O)n3ccccc3nc2n(Cc2ccco2)c1=NC(=O)c1cccc(F)c1 | – | inactive: 5.65% [at 9.27 µM] |
| Cc1nc2ccc(NC(=O)Cc3ccsc3)cc2s1 | inconclusive: 7.31 µM [activator, partial curve] | – |
| Cn1c(=O)c2c(nc(SCCN3CCOCC3)n2Cc2cccc3ccccc23)n(C)c1=O | inactive | – |
| Cc1ccc(S(=O)(=O)N/N=C/c2ccc(OC3CSC3)cc2)cc1 | inconclusive: 23.1 µM [falling, single point] | – |
| COc1cc(NC(=O)CCCc2nnc3n(CC(C)C)c(=O)c4sccc4n23)cc(OC)c1 | inactive | – |
| Cc1cc([N+](=O)[O-])ccc1NC(c1nnc(-c2ccccc2)o1)c1ccccc1F (configuration not stated) | inconclusive: 11.6 µM [activator, partial curve] | – |
| COc1ccc(CC(=O)N/N=C/c2cc(Br)cs2)cc1OC | inconclusive: 23.1 µM [falling, partial curve] | – |
| Nc1nc(-c2cc(-c3ccccc3)no2)cs1 | inconclusive: 5.8 µM [activator, partial curve] | – |

Of the compounds above, two have a COOH group:

| Structure (SMILES) | Potency | activity change, negative = inhibition |
| --- | --- | --- |
| CC(C)(C)c1ccc(/C=N/Nc2cccc(C(=O)O)c2)cc1 | inconclusive: 3.26 µM [activator, partial curve, poor fit] | – |
| N#Cc1ccc(CC(C(=O)O)N2Cc3ccccc3C2=O)cc1 (configuration not stated) | inconclusive: 5.17 µM [falling, partial curve, poor fit] | – |
